# A negative result means that nothing was seen under these conditions.
# Test system: MclX-His (Bacillus thuringiensis subsp. kurstaki HD73)
# Test: EMSA
# Details: 1 ng probe, increasing MclX (lanes 2-5, amounts not stated); EMSA as in Shen et al., 2021; pH and temperature not given; 1 ng FAM-labelled probe; recombinant protein; residues 1-220; protein details: C-terminal His (pET21b); label: FAM (on reverse primer PcwlC-R); probe letters rebuilt from the primers and the genome
sequence,measurement,value
TATTCATCAACATCTCCTTTCTTAATATCTTATTCAAAACTTGTCTTATTGCTATTCCCACTTACAATCTTAACTGTGCCCATACGTCCTATATTTTCTAAAAGTTATGCAATTTGTTTTCGATATAAAAAAGCTATCGCTTCATAAATCGAATGATTTATTCTCTAAATTACTTTTACATGAATGACGACACGAACAAAAAAG (double strand) [PcwlC promoter probe],binding result,no binding

# — PMC9397120
